Data on four molecules can be found in publication PMC9957047, “A Role for the Interactions between Polδ and PCNA Revealed by Analysis of pol3-01 Yeast Mutants” (Genes, 2023).

By UniProt entry, the sequences of proteins in these tests, tags left out.
UniProt P14284: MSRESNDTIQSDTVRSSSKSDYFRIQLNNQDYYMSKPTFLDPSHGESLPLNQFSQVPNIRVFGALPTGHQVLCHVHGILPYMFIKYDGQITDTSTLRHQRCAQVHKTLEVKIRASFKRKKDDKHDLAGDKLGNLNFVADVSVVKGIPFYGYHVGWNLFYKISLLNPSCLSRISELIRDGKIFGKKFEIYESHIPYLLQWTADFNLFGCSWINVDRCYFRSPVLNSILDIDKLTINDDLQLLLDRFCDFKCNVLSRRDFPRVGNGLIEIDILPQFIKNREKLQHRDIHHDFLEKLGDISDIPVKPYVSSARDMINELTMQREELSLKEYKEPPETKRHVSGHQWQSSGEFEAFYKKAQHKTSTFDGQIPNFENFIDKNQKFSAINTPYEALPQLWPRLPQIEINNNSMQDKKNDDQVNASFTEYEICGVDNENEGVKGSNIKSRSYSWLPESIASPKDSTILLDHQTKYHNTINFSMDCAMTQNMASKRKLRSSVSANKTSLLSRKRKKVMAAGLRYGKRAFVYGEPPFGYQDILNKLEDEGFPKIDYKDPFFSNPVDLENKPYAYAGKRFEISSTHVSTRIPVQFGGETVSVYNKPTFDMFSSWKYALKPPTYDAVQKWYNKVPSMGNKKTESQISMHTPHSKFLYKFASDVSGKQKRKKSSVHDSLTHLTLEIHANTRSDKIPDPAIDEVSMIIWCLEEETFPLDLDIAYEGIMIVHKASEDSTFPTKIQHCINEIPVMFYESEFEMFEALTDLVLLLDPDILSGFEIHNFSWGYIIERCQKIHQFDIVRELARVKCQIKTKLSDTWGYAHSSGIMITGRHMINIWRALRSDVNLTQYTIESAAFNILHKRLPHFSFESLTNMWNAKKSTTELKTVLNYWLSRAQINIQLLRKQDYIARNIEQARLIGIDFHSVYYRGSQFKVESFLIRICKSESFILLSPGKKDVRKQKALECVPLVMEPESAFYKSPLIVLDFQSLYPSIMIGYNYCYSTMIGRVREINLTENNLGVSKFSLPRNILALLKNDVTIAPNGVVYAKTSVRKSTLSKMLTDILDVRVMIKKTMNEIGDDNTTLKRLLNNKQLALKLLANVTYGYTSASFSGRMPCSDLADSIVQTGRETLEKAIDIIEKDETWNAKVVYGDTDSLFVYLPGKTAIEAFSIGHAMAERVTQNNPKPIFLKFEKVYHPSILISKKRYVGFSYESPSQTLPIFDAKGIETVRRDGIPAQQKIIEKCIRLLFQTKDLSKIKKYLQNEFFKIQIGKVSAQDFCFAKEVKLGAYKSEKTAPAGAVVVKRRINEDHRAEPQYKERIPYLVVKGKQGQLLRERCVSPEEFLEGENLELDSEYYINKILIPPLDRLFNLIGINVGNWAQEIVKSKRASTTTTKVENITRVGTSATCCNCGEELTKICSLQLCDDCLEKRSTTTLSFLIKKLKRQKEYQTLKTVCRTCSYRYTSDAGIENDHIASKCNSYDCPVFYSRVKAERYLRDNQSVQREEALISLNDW

Results are given in words; binding and its absence hold for the method and conditions named. For some of these results: Binding seen in cells or lysates may run through a third protein. Some entries that bind do so weakly or less than the wild type. Where a sequence is shown, tags or fusion partners need not be part of it.

Assay [1] addresses T1, HA-tagged Pol31-K358E (pol31-K358E-HA) (S. cerevisiae) (UniProt P46957).
T1 sequence: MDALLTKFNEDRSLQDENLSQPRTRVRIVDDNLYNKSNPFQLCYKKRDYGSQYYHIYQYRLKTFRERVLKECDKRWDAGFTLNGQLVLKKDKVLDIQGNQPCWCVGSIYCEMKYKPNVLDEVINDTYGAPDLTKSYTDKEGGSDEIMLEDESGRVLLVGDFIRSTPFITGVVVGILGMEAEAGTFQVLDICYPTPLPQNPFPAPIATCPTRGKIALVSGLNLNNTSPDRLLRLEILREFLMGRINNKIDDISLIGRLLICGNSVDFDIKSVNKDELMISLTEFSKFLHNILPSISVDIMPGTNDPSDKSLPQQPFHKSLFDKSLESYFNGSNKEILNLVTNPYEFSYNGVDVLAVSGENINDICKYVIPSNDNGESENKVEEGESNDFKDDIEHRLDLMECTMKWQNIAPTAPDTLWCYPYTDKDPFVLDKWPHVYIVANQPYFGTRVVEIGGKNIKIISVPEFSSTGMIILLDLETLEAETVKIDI
The experiment in a line: co-IP; triply-tagged strains with POL3-MYC (wild-type POL3 background); mid-log cells; HA-tagged Pol31 immunoprecipitated with anti-HA antibodies; Western blot with anti-Myc for Pol3 and Rev3 (Figure 6A). On the technique in general: Immunoblotting shows a protein as a band on a membrane.

The target of assay [2] is T2, HA-tagged Pol31 (pol31-HA) (S. cerevisiae) (UniProt P46957).
T2 sequence: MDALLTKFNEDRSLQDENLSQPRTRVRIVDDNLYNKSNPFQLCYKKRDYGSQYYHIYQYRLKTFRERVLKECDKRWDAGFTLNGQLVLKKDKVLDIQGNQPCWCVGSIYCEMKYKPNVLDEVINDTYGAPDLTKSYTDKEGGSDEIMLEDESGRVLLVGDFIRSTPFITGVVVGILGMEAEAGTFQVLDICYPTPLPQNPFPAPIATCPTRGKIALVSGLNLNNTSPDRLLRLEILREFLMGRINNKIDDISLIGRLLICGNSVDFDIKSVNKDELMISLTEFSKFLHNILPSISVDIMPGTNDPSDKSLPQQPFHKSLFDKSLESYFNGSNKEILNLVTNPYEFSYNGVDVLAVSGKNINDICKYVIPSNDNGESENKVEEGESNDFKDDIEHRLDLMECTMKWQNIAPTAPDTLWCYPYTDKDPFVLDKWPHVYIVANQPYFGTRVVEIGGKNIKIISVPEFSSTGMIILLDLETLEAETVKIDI
Described as above.

Assay [3] concerns the target T1, HA-tagged Pol31-K358E (pol31-K358E-HA) (S. cerevisiae). The experiment in a line: co-IP; triply-tagged strains with pol3-01-MYC (pol3-01 background); mid-log cells; HA-tagged Pol31 immunoprecipitated with anti-HA antibodies; Western blot with anti-Myc for Pol3-01 and Rev3 (Figure 6A).
Assay [4] addresses T2, HA-tagged Pol31 (pol31-HA) (S. cerevisiae). Described as above.
Assay [5] concerns the target T3, Pol3-01 fused to the GAL4 DNA binding domain (pGBKT7 pol3-01) (S. cerevisiae) (UniProt P15436).
T3 sequence: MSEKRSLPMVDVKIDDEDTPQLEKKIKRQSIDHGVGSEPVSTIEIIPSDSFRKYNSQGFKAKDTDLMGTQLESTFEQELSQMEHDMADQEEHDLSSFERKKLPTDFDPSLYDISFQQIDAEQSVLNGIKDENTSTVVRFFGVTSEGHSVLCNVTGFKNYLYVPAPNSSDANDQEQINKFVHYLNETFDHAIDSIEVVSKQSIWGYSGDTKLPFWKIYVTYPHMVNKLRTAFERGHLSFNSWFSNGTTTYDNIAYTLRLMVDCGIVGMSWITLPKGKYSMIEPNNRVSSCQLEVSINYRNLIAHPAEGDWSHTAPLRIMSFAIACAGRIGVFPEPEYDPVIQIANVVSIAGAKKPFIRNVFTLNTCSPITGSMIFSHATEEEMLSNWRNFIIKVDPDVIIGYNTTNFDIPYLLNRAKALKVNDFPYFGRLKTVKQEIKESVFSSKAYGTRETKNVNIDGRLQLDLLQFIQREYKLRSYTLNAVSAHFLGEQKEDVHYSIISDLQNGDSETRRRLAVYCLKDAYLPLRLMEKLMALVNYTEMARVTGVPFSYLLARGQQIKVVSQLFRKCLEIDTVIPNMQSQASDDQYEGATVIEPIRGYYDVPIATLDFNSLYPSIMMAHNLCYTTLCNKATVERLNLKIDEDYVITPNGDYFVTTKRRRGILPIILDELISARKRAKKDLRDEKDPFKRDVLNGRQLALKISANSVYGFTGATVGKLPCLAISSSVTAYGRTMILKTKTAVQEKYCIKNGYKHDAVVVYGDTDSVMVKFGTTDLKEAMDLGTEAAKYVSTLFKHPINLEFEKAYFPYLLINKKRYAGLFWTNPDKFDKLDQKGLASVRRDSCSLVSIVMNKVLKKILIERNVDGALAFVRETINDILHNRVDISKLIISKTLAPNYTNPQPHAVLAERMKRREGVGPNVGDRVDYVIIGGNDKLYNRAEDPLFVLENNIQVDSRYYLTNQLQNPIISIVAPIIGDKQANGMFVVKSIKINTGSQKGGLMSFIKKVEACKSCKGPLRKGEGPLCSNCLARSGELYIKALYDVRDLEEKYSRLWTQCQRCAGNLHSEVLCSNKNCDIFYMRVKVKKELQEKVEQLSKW
Put plainly: two-hybrid; strain PJ69-4a; POL30 fused to the GAL4-activating domain (pACT2), POL3 alleles fused to the GAL4 DNA binding domain (pGBKT7); spotted on SD-Trp-Leu and SD-Trp-Leu-His plates, 3-4 days at 30 °C.

Assay [6] has as its target T4, Pol3 fused to the GAL4 DNA binding domain (pGBKT7 POL3) (S. cerevisiae), P15436.
T4 chain: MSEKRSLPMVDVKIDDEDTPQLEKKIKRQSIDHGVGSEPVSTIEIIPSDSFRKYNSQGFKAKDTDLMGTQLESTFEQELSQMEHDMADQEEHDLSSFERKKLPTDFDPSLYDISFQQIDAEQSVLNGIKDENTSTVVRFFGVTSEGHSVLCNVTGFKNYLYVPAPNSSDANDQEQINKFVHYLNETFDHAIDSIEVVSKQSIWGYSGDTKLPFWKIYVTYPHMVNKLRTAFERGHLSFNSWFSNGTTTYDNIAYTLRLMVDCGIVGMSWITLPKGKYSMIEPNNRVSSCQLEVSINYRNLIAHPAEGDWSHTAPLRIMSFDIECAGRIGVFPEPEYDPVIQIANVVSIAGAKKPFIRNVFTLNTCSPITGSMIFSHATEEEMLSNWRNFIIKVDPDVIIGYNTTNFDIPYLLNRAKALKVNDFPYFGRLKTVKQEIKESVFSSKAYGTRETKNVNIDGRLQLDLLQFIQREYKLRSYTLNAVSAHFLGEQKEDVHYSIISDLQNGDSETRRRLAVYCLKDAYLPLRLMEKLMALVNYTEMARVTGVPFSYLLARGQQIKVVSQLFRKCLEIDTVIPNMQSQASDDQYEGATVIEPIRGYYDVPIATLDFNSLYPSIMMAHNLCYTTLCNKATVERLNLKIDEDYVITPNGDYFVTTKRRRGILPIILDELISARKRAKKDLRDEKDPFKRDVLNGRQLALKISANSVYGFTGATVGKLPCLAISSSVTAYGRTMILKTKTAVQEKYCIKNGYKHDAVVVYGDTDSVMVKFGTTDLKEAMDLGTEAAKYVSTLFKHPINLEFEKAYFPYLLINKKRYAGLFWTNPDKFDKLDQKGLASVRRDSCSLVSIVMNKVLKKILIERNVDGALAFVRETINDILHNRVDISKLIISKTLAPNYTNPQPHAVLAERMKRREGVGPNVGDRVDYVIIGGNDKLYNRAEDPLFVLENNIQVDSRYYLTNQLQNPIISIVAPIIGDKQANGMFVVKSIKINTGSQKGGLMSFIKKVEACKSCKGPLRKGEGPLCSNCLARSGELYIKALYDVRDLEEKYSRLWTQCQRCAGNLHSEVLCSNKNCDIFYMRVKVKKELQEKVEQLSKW
The description is as above. The note with it: remark: other sources report otherwise.

For assay [7], the target named is T5, PCNA (Pol30) immunoprecipitated in the co-IP of Figure 2C (S. cerevisiae), P15873.
T5 chain: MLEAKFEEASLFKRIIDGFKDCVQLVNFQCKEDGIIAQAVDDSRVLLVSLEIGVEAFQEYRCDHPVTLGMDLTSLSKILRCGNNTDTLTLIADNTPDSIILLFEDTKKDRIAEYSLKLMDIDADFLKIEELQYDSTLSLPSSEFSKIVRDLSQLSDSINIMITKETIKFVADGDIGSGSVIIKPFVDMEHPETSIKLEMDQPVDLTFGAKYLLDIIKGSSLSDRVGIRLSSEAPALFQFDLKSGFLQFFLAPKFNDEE
The experiment in a line: co-IP; PCNA immunoprecipitated from yeast extract (methods: 2 μg anti-PCNA antibody, overnight at 4 °C, washes with lysis buffer at 220 mM NaCl); level of FLAG-tagged Pol3 or Pol3-01 co-IPed measured (Figure 2C). The following applies: remark: other sources report otherwise.

As to “Myc-tagged Rev3 (REV3-MYC) (from UniProt P14284 1-1504)”, the binding entry was “binds” in assay [1], “binds weakly” in assay [2], “binds” in assay [3] and “binds” in assay [4]. Turning to “Pol30 (PCNA) fused to the GAL4 activating domain (pACT2 carrying POL30) (from UniProt P15873 1-258)”, the binding entry in assay [5] is “binds weakly”.

B1: Pol30 (PCNA) fused to the GAL4 activating domain (pACT2 carrying POL30), P15873 1-258 (protein)
chain: MLEAKFEEASLFKRIIDGFKDCVQLVNFQCKEDGIIAQAVDDSRVLLVSLEIGVEAFQEYRCDHPVTLGMDLTSLSKILRCGNNTDTLTLIADNTPDSIILLFEDTKKDRIAEYSLKLMDIDADFLKIEELQYDSTLSLPSSEFSKIVRDLSQLSDSINIMITKETIKFVADGDIGSGSVIIKPFVDMEHPETSIKLEMDQPVDLTFGAKYLLDIIKGSSLSDRVGIRLSSEAPALFQFDLKSGFLQFFLAPKFNDEE
Take B1: the binding result in assay [6] is reported as “binds”.

B2: FLAG-tagged Pol3 (Pol3-FLAG) of the co-IP of Figure 2C, P15436 1-1097 (protein)
chain: MSEKRSLPMVDVKIDDEDTPQLEKKIKRQSIDHGVGSEPVSTIEIIPSDSFRKYNSQGFKAKDTDLMGTQLESTFEQELSQMEHDMADQEEHDLSSFERKKLPTDFDPSLYDISFQQIDAEQSVLNGIKDENTSTVVRFFGVTSEGHSVLCNVTGFKNYLYVPAPNSSDANDQEQINKFVHYLNETFDHAIDSIEVVSKQSIWGYSGDTKLPFWKIYVTYPHMVNKLRTAFERGHLSFNSWFSNGTTTYDNIAYTLRLMVDCGIVGMSWITLPKGKYSMIEPNNRVSSCQLEVSINYRNLIAHPAEGDWSHTAPLRIMSFDIECAGRIGVFPEPEYDPVIQIANVVSIAGAKKPFIRNVFTLNTCSPITGSMIFSHATEEEMLSNWRNFIIKVDPDVIIGYNTTNFDIPYLLNRAKALKVNDFPYFGRLKTVKQEIKESVFSSKAYGTRETKNVNIDGRLQLDLLQFIQREYKLRSYTLNAVSAHFLGEQKEDVHYSIISDLQNGDSETRRRLAVYCLKDAYLPLRLMEKLMALVNYTEMARVTGVPFSYLLARGQQIKVVSQLFRKCLEIDTVIPNMQSQASDDQYEGATVIEPIRGYYDVPIATLDFNSLYPSIMMAHNLCYTTLCNKATVERLNLKIDEDYVITPNGDYFVTTKRRRGILPIILDELISARKRAKKDLRDEKDPFKRDVLNGRQLALKISANSVYGFTGATVGKLPCLAISSSVTAYGRTMILKTKTAVQEKYCIKNGYKHDAVVVYGDTDSVMVKFGTTDLKEAMDLGTEAAKYVSTLFKHPINLEFEKAYFPYLLINKKRYAGLFWTNPDKFDKLDQKGLASVRRDSCSLVSIVMNKVLKKILIERNVDGALAFVRETINDILHNRVDISKLIISKTLAPNYTNPQPHAVLAERMKRREGVGPNVGDRVDYVIIGGNDKLYNRAEDPLFVLENNIQVDSRYYLTNQLQNPIISIVAPIIGDKQANGMFVVKSIKINTGSQKGGLMSFIKKVEACKSCKGPLRKGEGPLCSNCLARSGELYIKALYDVRDLEEKYSRLWTQCQRCAGNLHSEVLCSNKNCDIFYMRVKVKKELQEKVEQLSKW
As to B2, the binding entry in assay [7] is “binds”.
